# Screening data, single-dose tests

Protein sequences, listed by entry. Tags and fused reporters are not part of them. Residues count along the entry.
UniProt P9WNZ1, whole entry: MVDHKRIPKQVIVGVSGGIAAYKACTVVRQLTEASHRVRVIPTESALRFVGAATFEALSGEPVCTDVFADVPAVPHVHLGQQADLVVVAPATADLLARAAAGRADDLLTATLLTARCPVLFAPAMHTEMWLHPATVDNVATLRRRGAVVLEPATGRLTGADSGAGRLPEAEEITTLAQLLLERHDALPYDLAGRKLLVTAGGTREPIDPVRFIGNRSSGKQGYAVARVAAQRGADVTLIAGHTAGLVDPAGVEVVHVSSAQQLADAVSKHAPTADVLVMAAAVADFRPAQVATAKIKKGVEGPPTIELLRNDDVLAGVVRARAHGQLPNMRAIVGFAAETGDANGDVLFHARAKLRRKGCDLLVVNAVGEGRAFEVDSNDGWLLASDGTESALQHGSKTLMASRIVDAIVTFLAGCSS
UniProt I6X8D2, whole entry: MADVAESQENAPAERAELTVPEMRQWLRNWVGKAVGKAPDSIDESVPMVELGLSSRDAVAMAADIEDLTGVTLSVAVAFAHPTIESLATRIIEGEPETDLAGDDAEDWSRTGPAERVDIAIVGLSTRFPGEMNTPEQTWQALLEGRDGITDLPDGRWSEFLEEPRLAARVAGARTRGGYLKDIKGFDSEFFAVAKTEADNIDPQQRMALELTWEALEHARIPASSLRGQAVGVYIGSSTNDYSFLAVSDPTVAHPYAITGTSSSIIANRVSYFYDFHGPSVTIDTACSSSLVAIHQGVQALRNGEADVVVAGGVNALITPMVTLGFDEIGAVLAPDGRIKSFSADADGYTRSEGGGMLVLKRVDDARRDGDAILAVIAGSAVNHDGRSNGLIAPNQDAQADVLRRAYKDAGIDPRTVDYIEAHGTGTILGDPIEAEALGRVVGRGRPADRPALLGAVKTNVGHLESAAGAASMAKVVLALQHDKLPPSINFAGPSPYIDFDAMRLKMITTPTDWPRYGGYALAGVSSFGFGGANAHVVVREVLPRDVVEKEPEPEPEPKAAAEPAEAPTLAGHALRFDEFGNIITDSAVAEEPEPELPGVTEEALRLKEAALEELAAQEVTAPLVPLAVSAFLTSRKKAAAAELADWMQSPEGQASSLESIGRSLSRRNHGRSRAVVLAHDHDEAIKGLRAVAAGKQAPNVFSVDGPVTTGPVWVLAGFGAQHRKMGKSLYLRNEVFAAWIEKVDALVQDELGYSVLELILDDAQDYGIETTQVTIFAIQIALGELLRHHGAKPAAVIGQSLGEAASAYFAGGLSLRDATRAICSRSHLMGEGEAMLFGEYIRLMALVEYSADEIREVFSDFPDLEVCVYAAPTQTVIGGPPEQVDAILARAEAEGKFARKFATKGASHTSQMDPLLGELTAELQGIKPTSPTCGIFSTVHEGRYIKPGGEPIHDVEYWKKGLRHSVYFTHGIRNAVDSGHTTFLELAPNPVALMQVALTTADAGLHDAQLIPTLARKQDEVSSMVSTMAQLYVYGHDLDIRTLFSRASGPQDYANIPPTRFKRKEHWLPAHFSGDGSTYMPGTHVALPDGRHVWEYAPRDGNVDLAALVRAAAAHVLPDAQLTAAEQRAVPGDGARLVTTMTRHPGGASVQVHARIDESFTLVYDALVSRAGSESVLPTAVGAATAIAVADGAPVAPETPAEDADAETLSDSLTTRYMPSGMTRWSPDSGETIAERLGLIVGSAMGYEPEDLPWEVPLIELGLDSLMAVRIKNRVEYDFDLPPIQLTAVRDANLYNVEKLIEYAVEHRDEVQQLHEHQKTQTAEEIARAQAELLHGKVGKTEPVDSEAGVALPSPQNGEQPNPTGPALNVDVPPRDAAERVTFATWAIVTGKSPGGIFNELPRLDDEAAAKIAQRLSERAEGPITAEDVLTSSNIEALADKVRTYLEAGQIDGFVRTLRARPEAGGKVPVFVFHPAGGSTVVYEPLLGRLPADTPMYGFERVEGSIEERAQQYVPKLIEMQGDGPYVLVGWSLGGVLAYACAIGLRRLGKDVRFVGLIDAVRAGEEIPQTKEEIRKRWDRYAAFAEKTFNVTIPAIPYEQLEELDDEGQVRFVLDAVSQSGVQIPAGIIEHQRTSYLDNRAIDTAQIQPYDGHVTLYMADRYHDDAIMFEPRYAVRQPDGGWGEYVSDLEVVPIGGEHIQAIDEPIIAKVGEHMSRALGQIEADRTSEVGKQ
UniProt P9WPC5, whole entry: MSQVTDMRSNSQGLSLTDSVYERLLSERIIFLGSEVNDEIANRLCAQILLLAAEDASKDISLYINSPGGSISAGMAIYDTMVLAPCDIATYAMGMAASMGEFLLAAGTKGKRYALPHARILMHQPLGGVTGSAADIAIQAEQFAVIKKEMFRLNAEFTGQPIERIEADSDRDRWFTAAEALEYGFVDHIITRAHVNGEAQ
UniProt P9WPC3, whole entry partner: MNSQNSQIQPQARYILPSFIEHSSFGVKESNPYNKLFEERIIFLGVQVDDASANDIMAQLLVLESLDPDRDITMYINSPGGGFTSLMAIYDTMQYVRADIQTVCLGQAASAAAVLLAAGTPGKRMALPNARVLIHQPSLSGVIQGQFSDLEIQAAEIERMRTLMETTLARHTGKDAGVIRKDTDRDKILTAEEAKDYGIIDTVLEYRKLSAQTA
UniProt Q4DA54, 1-478: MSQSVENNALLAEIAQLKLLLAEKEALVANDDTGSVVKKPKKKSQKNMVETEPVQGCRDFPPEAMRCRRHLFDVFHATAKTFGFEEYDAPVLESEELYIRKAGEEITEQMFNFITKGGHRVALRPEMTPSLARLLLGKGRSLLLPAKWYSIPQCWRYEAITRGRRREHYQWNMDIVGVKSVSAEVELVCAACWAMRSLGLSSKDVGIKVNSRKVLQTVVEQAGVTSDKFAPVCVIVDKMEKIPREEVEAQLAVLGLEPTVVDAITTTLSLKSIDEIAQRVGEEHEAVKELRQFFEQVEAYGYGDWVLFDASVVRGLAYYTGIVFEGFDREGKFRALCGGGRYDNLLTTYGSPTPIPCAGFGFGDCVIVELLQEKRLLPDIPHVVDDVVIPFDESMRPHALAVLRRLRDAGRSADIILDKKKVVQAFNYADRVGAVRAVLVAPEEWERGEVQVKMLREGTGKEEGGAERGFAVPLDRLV

The filed quantity is “Percent Effect” (%). The controls that fix the scale are not given in the record; negative values are as filed. The compounds are a random part of those screened. Two or more numbers in one place are separate tests of the same structure; such repeats can differ widely. A dash means the value is not listed here; it may have been measured.

CoaBC: 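Enzyme assay of CoaBC with a phosphate dye (Biomol Green) read at 650 nm. Target: Coenzyme A biosynthesis protein CoaBC, Mycobacterium tuberculosis (UniProt P9WNZ1). Tested at 30 µM. Direction is inferred from only a few compounds that gave an IC50; most scored high, so higher reads as stronger inhibition. Most strong results did not repeat in a second test. Of about 67,000 compounds tested this way, about 40 (0.06%) reached 50% or more in at least one test.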
Leishmania in macrophages: 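Cell assay of Leishmania donovani living inside macrophages; the read-out is not stated. Tested at 30 µM. The record gives no direction; compounds that gave an IC50 in retests scored well above the rest, so higher reads as stronger inhibition. Size under these conditions: about 69,000 compounds, about 1,000 of them at 50% or above in at least one test.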
Pks13 thioesterase: 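Enzyme assay of the thioesterase domain of polyketide synthase 13; the read-out is not stated. Target: Polyketide synthase Pks13, Mycobacterium tuberculosis (UniProt I6X8D2). Compounds at 30 µM. The record gives no direction; the compounds picked for IC50 retests had high values, so higher reads as stronger inhibition. Of about 67,000 compounds tested this way, about 300 (0.46%) reached 50% or more in at least one test.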
ClpP1P2: 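Protease assay of ClpP1P2, read by the AMC dye that it sets free. Target: ClpP1P2, Mycobacterium tuberculosis (UniProt P9WPC5 and UniProt P9WPC3). Compounds at 50 µM. Direction is inferred from only a few compounds that gave an IC50; most scored high, so higher reads as stronger inhibition. Most other retested compounds had strongly negative values. About 69,000 compounds were tested under these conditions; 0.015% (about 10) showed 50% or more at least once.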
TcHisRS: 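Histidine-tRNA ligase, Trypanosoma cruzi CL Brener (UniProt Q4DA54). Enzyme assay of histidyl-tRNA synthetase; the read-out is not stated. Concentration: 30 µM. Direction is inferred from retests: higher values go with stronger inhibition. Size under these conditions: about 69,000 compounds, about 31 of them at 50% or above in at least one test.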

| # | compound | CoaBC | Leishmania in macrophages | Pks13 thioesterase | ClpP1P2 | TcHisRS |
|---|---|---|---|---|---|---|
| 1 | `Cc1cc2[nH]c(O)nc2cc1NCc1ccc(F)cc1` | 12.3% | 1.546% | -9.242% | 8.81% | 10.31% |
| 2 | `Cc1cccc(C(=O)Nc2ccc(OC3CCOCC3)c(C)c2)n1` | 11.54% | -31.73% | 4.706% | -16.8% | -0.5405% |
| 3 | `CS(=O)(=O)CCn1ccc(NCc2ccc(C#N)cc2)n1` | 3.043% | 35.11% | -6.698% | -6.33% | 6.952% |
| 4 | `CCOc1ccnc(N2CCN(C(=O)c3cc(Cl)c[nH]3)CC2)n1` | -4.627% | 46.95% | -44.71% | 1.742% | 4.511% |
| 5 | `COCCN1C[C@H]2CC[C@@H]1CN(Cc1cc(=O)c3cc(C)ccc3[nH]1)C2` | 1.085% | - | -32.94% | -1.199% | 21.28% |
| 6 | `CN(CCCOc1ccc(F)cc1)Cc1nc2c(cnn2C)c(=O)[nH]1` | 3.172% | 9.431% | -3.583% | 7.505% | 2.273% |
| 7 | `CN(C)c1ncccc1CNS(=O)(=O)c1ccc(C(N)=O)cc1` | -0.7874% | 8.043% | -2.917% | -14.26% | 7.429% |
| 8 | `CC(=O)N1N=C(Cc2ccccc2)OC1C(=O)NCC(=O)OC(C)(C)C` (stereo not given) | 2.427% | -2.237% | 14.92% | -8.033% | 4.545% |
| 9 | `CCOCC(=O)N1Cc2[nH]nc(COCC3CC3)c2C1.O=C(O)C(F)(F)F` | - | 5.059% | - | - | - |
| 10 | `Cc1cc(C)n(CCNc2ncnc3c2NC(=O)CN3)n1` | 1.646% | -34.77% | 2.531% | -112.6% | 7.453% |
| 11 | `Cc1cnn(CC2CN(CC(=O)N(C)Cc3ccccc3)CCO2)c1` (stereo not given) | 0% | -4.741% | -14.67% | -20.03% | 6.215% |
| 12 | `CNS(=O)(=O)CC(=O)N(C1CCCC1)C1CC1` | 5.774% | -7.482% | -1.877% | -11.56% | 11.9% |
| 13 | `OCc1ccc(-c2nccn2CCc2nc3c(s2)CCCC3)o1` | 2.258% | -3.192% | -21.48% | -0.1529% | 9.36% |
| 14 | `O=C(O)c1ccn(-c2cccc(NC(=O)c3ccccc3Cl)c2)n1` | 5.368% | 16.34% | -7.91% | 2.67% | 4.762% |
| 15 | `CO[C@@H]1CN(C)S(=O)(=O)[C@@]12CCN(Cc1ccccc1)C2` | 2.663% | 6.617% | -11.59% | -7.912% | 6.742% |
| 16 | `O=C(O)C(F)(F)F.O=C(O)C(F)(F)F.[H][C@@]12COC[C@]1(C(=O)NCc1ccccn1)CN(Cc1ccsc1)C2` | - | -9.246% | - | - | - |
| 17 | `CCC(C)NC(=O)Nc1cccc(OCCCC#N)c1` (stereo not given) | -0.6369% | 25.17% | -42.39% | 6.092% | 7.182% |
| 18 | `Cc1csc(C2CCCN(C(=O)c3cnc4n[nH]c(C)c4c3)C2)n1` (stereo not given) | -2.491% | 9.088% | -3.234% | 5.087% | 2.256% |
| 19 | `COCCNC(=O)CN1CCCC1c1c(C)nn(C)c1Cl` (stereo not given) | 14.04% | 5.536% | -9.126% | -10.45% | -3.152% |
| 20 | `COc1cc2c(cc1CNCc1cccnc1OC)OC(C)C2` (stereo not given) | 1.217% | 11% | - | -4.178% | 10.3% |
| 21 | `O=C(O)C(F)(F)F.O=C(O)C(F)(F)F.O=C(O)C(F)(F)F.c1ccc(CN2CCc3nnc(COc4ccccn4)n3CC2)nc1` | - | -6.632% | - | - | - |
| 22 | `Cc1nnc(CN2CCC(N(C)Cc3nnc(C4CC4)n3C)C2)o1` (stereo not given) | 2.491% | 8.919% | -3.582% | 6.526% | 1.504% |
| 23 | `CN(C)C(=O)N1CCC(c2nc3ccc(N4CCCC4)cn3n2)CC1` | 12.77% | - | -14.67% | -33.6% | 4.478% |
| 24 | `CC(C)n1nccc1C(=O)N1CCC(c2nnsc2S(C)(=O)=O)CC1` | 4.731% | 38.69% | 15.18% | -0.1827% | 7.576% |
| 25 | `CC(C)n1cnnc1CN(C)C(=O)c1ccccc1N1CCOCC1` | 4.459% | 6.232% | -3.403% | -2.218% | -0.8% |
| 26 | `Cc1n[nH]cc1CNCC1(c2ccc3c(c2)OCO3)CCOCC1.Cl` | - | 43.44% | - | - | - |
| 27 | `NC(=O)CCC(=O)N1CCc2[nH]nc(-c3ccc4c(c3)OCO4)c2C1` | -5.14% | 15.34% | -10.31% | -4.627% | 4.348% |
| 28 | `Cc1nc(CN2CCCC(C)(CO)C2)no1` (stereo not given) | -2.479% | -19.86% | -6.296% | -7.353% | 5% |
| 29 | `CN(C)C(=O)CN1C[C@@H]2CC[C@H](C1)N(C(=O)CCCn1cncn1)C2` | -12.45% | - | -39.12% | 6.793% | 2.326% |
| 30 | `COCC(=O)N1CCCC(c2cc(C(F)F)n3ncnc3n2)C1.Cl` (stereo not given) | - | 18.35% | - | - | - |
| 31 | `CS(=O)(=O)c1ccc(CNC(=O)N2CCC(C(N)=O)CC2)cc1` | 2.1% | 7.425% | 4.61% | -20.46% | 5.714% |
| 32 | `O=C(NCCCOCC1CCCO1)c1cccnc1N1CCCC1` (stereo not given) | -3.52% | 18.59% | 1.24% | 8.444% | 8.021% |
| 33 | `O=C(CC1CC1)N1CCC2(CC1)CN(Cc1cccnc1)C(=O)CO2.O=C(O)C(F)(F)F` | - | 9.993% | - | - | - |
| 34 | `CN(CCc1ccccn1)C(=O)Cn1cc(-c2ccccc2)nn1` | -0.3822% | 9.092% | -18.94% | -10.05% | 3.867% |
| 35 | `CNC(=O)C(NC(=O)c1nccn2ccnc12)c1ccc(F)c(F)c1` (stereo not given) | 11.39% | 6.545% | -1.087% | -23.35% | 1.604% |
| 36 | `COc1cc(F)c(C(C)NC(=O)c2cccnc2C)cc1OC` (stereo not given) | 2.39% | 7.092% | -12.76% | -2.082% | 1.053% |
| 37 | `Cc1ccc(CN(CCCN2CCOCC2)Cc2cncn2C)o1` | 0.618% | - | -33.61% | -7.512% | -1.521% |
| 38 | `CC(C)c1cc(C(=O)N2CCN(c3ccc(F)c(Cl)c3)CC2)n(C)n1` | -1.225% | 4.537% | -10.04% | -5.278% | 2.381% |
| 39 | `N#Cc1ccc(C(=O)N2CCCC3(C=Cc4ccccc4O3)CC2)cn1` (stereo not given) | 1.085% | 7.98% | -14.77% | -4.892% | -1.064% |
| 40 | `CC(C)NC(=O)N1CC[C@@H](N(C)C)[C@@H]1Cc1ccncc1.O=C(O)C(F)(F)F.O=C(O)C(F)(F)F` | - | 17.74% | - | - | - |
| 41 | `CN1CCN(c2nccc(-c3cncnc3C3CCCCC3)n2)CC1` | 1.566% | 9.565% and 10.81% | 23.39% | -2.455% | 10.17% |
| 42 | `CCN1CC2(CCN(C(=O)C(C)Oc3cccc(Cl)c3)CC2)OC1=O` (stereo not given) | 2.927% | 28.64% | -34.74% | -2.094% | 6.494% |
| 43 | `CCOC(=O)N1CCN(Cc2ccc(OCc3nccn3C)cc2)CC1` | 4.819% | 37.08% | -3.644% | -1.725% | 3.053% |
| 44 | `Cc1cc(CC(=O)N2CCc3cc(Br)sc3C2)n[nH]1` | -8.402% | 2.919% | -26.75% | -4.935% | 9.574% |
| 45 | `O=C(O)C(F)(F)F.[H][C@@]12COC[C@]1(c1nnc(C)o1)CN(Cc1cnn(C)c1)C2` | - | 10.4% | - | - | - |
| 46 | `Cc1cnn(C2CCCN(C(=O)CCNS(C)(=O)=O)C2)c1` (stereo not given) | 16.89% | -11.85% | -23.02% | -5.642% | 0% |
| 47 | `COc1ccc2c(=O)n(CC3CCCN(C)C3)ccc2c1OC` (stereo not given) | -10.69% | 9.439% | -23.58% | 9.491% | -4.348% |
| 48 | `CCN(CC)Cc1nc2c(o1)CN(S(=O)(=O)c1cccs1)C2` | 1.361% | - | -5.124% | 5.293% | 8.543% |
| 49 | `CC(C)n1nc(CN(C)C)c2c1CN(C(=O)CC1CC1)CC2` | - | - | -26.69% | -14.52% | 5.063% |
| 50 | `COc1cccc(C)c1C(=O)N1CCc2ncnc(NCCO)c2CC1` | -0.1229% | 15.9% | -10.47% | -12.3% | 2.381% |
| 51 | `c1ccc(CCN2CCOC(Cn3cccn3)C2)nc1` (stereo not given) | 11.03% | 17.58% | -14.5% | 8.017% | 2.642% |
| 52 | `CCN(C(=O)c1nc2c(s1)CCCN2c1ccc(C)nn1)C(C)C` | 7.636% | 11.81% | -6.363% | -4.912% | 12.85% |
| 53 | `Cc1nn(C)c(C)c1OCC(=O)NCC(O)Cc1ccccc1` (stereo not given) | 4.016% | -11.07% | -6.168% | -1.079% | -1.064% |

Once more, the final 5:

Result for CC(C)n1nc(CN(C)C)c2c1CN(C(=O)CC1CC1)CC2 was Pks13 thioesterase: -26.69%; ClpP1P2: -14.52%; TcHisRS: 5.063%.
Result for COc1cccc(C)c1C(=O)N1CCc2ncnc(NCCO)c2CC1 was CoaBC: -0.1229%; Leishmania in macrophages: 15.9%; Pks13 thioesterase: -10.47%; ClpP1P2: -12.3%; TcHisRS: 2.381%.
Result for c1ccc(CCN2CCOC(Cn3cccn3)C2)nc1 (stereo not given) was CoaBC: 11.03%; Leishmania in macrophages: 17.58%; Pks13 thioesterase: -14.5%; ClpP1P2: 8.017%; TcHisRS: 2.642%.
Result for CCN(C(=O)c1nc2c(s1)CCCN2c1ccc(C)nn1)C(C)C was CoaBC: 7.636%; Leishmania in macrophages: 11.81%; Pks13 thioesterase: -6.363%; ClpP1P2: -4.912%; TcHisRS: 12.85%.
Result for Cc1nn(C)c(C)c1OCC(=O)NCC(O)Cc1ccccc1 (stereo not given) was CoaBC: 4.016%; Leishmania in macrophages: -11.07%; Pks13 thioesterase: -6.168%; ClpP1P2: -1.079%; TcHisRS: -1.064%.

From ChEMBL document CHEMBL3988442, “University of Dundee, Small-Polar-MMV Screening Library” (2021).